Measured values published in PubChem BioAssay AID2417 (National Center for Advancing Translational Sciences (NCATS), 2010).
Out of some 140,000 compounds screened, about 4,300 (3.1%) were called active. The inconclusive results got no clear call from the source; some entries with a clear call stand among them for comparison.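 The calls were made as follows: active = readout at or below -70, meaning at least 70% loss of cells showing the perinucleolar compartment, a nuclear body marking cancer cells; inconclusive = readout between -30 and a set limit; inactive = the rest.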

Assay: High Content Assay for Compounds that inhibit the Assembly of the Perinucleolar Compartment;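 also: plate controls were DMSO wells for no effect and camptothecin positive control wells for full effect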
Details: PC3M PTB-GFP, PNC prevalence imaging, 16 h; at 10 µM; active compounds read low
Method in brief: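 Read-out is percentage of cells bearing a perinucleolar compartment, from automated 20x imaging of fixed, Hoechst-stained PC3M PTB-GFP cells. Cells were seeded 4 h, then exposed 16 h to compound (23 nl of library stock) in duplicate plates.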
With `CCOc1ccc(-n2c(SCc3nc(-c4ccc(C)cc4)no3)nnc2-c2ccncc2)cc1` the activity change (PNC), negative = inhibition was inconclusive: -39%. With `COc1ccccc1-n1cnnc1SCC(=O)c1cc(C)n(Cc2cccs2)c1C` the activity change (PNC), negative = inhibition was inconclusive: -32.9%. With `Cc1cc(N2C(=O)CC(C(C)c3ccccc3)C2=O)no1` (stereo not drawn) the activity change (PNC), negative = inhibition was inconclusive: -49.7%. For `O=S(=O)(Nc1nc2ccccc2nc1-[n+]1ccccc1)c1ccc(Cl)cc1`, the activity change (PNC), negative = inhibition was inconclusive: -48.7%. For `Fc1cccc(Cl)c1CSc1nnc(CN2CCOCC2)n1-c1ccccc1`, the activity change (PNC), negative = inhibition was inactive: 20.6%. For `O=C(CN(CCc1ccccc1)C(=O)CN1C(=O)COc2ccccc21)NCc1ccco1`, the activity change (PNC), negative = inhibition was inactive: 2.53%. In the case of `COc1ccccc1-n1c(C)nc2cc(C(=O)O)ccc21`, the activity change (PNC), negative = inhibition is reported as inactive: 42.5%. In the case of `COc1ccc(NC2=NCC(=O)N2c2ccccc2)c(OC)c1`, the activity change (PNC), negative = inhibition is reported as active: -94.4%. For `CCOc1ccc(NC(=O)C2CCCN(C(=O)Nc3ccccc3)C2)cc1` (stereo not drawn), the activity change (PNC), negative = inhibition was inconclusive: -62%. For `COc1ccc(OC)c(C(=O)CSc2nccc(-c3ccc(Br)cc3)n2)c1`, the activity change (PNC), negative = inhibition was inconclusive: -48.6%. In the case of `CCCCc1ccc(S(=O)(=O)NCCc2ccncc2)cc1`, the activity change (PNC), negative = inhibition is reported as inactive: 27.5%. For `C[C@H](NC(=O)NCc1ccc(F)cc1)C(=O)O`, the activity change (PNC), negative = inhibition was inconclusive: -36.8%. With `Cc1cc(-c2nnc(-c3ccccc3)c(-c3ccccc3)n2)c(C)o1` the activity change (PNC), negative = inhibition was inactive: -4%. For `Cc1nc2cc(NC(=O)NCc3ccco3)ccc2o1`, the activity change (PNC), negative = inhibition was inconclusive: -57.7%. In the case of `O=C(NCc1ccccn1)c1ccc(NC(=O)c2ccco2)cc1`, the activity change (PNC), negative = inhibition is reported as inconclusive: -53.5%. For `CCCS(=O)(=O)c1nc(S(=O)(=O)c2ccc(C)cc2)c(NCc2ccc3c(c2)OCO3)s1`, the activity change (PNC), negative = inhibition was inconclusive: -71.7%. In the case of `Nc1cc(-c2ccncc2)c[nH]c1=O`, the activity change (PNC), negative = inhibition is reported as inconclusive: -58.5%. For `CCC(CC)C(=O)Nc1cccc(C(=O)Nc2ccc3c(c2)OCO3)c1`, the activity change (PNC), negative = inhibition was inactive: -27.1%. With `COc1ccc(C(=O)CSc2nnc(Cn3cnc4ccccc43)o2)cc1` the activity change (PNC), negative = inhibition was inconclusive: -52.4%. For `Cc1cc(S(=O)(=O)N(Cc2ccc(C(C)C)cc2)CC2CCCO2)ccc1-n1cnnn1` (stereo not drawn), the activity change (PNC), negative = inhibition was inconclusive: -33.3%. For `COc1cccc(-c2cc(C(=O)N3CCCc4ccccc43)no2)c1`, the activity change (PNC), negative = inhibition was inactive: 32.1%. With `O=C(CCn1nc(-c2ccccc2)c2ccccc2c1=O)N1CCN(c2ccccc2)CC1` the activity change (PNC), negative = inhibition was inactive: -22.8%. For `Cc1cc(C)n(-c2nnc(C)n2/N=C/c2ccccc2F)n1`, the activity change (PNC), negative = inhibition was inconclusive: -54.1%. In the case of `CC(C)Cn1c(N)c(C(=O)COC(=O)c2ccc3c(c2)OCCO3)c(=O)n(C)c1=O`, the activity change (PNC), negative = inhibition is reported as inconclusive: -52.8%. With `Cn1c(=O)oc2cc(S(=O)(=O)NCCC(=O)NCCc3ccccc3)ccc21` the activity change (PNC), negative = inhibition was inconclusive: -61.6%. For `CCOC(=O)c1ccc(N2NC(=O)/C(=C/c3ccc(OC(=O)c4ccco4)c(OC)c3)C2=O)cc1`, the activity change (PNC), negative = inhibition was inconclusive: -68.1%. For `C=CCNc1nc(Nc2ccc(OC)cc2)nc(OC)n1`, the activity change (PNC), negative = inhibition was inconclusive: -42.2%. With `NC(=O)c1ccccc1NC(=O)CS(=O)(=O)Cc1ccccc1` the activity change (PNC), negative = inhibition was inactive: -14.3%. For `CCN(CC)S(=O)(=O)c1ccc(N2CCOCC2)c(NC(=O)c2ccccc2)c1`, the activity change (PNC), negative = inhibition was inactive: 10.5%. In the case of `COC(=O)c1cc(NC(=O)CN(c2ccc(OC)cc2)S(=O)(=O)c2ccc(F)cc2)ccc1Cl`, the activity change (PNC), negative = inhibition is reported as active: -119%. With `COc1cccc(C(=O)CN(C(=O)c2ccc(Cl)c(Cl)c2)N2C(=O)c3ccccc3C2=O)c1` the activity change (PNC), negative = inhibition was inconclusive: -46%. For `COC(=O)c1ccc(COc2ccc3c(C)c(C)c(=O)oc3c2C)o1`, the activity change (PNC), negative = inhibition was inconclusive: -57.3%. With `CC(NC(=O)C1CC=CCC1C(=O)O)C1CC2CCC1C2` (stereo not drawn) the activity change (PNC), negative = inhibition was inconclusive: -32.7%. For `CCN(C(=O)COC(=O)c1c2c(nc3ccccc13)/C(=C/c1ccccc1)CC(C)C2)C1CCS(=O)(=O)C1` (stereo not drawn), the activity change (PNC), negative = inhibition was inconclusive: -42.2%. With `Cc1noc(C)c1COC(=O)c1cc2c3ccccc3n(C)c2s1` the activity change (PNC), negative = inhibition was inconclusive: -40.1%. In the case of `CC(C)c1ccc(/C=N/NC(=O)C(=O)NCCCN2CCOCC2)cc1`, the activity change (PNC), negative = inhibition is reported as inactive: 33.6%. In the case of `CCCCCCCCC(=O)NCCOc1ccc(OC)cc1`, the activity change (PNC), negative = inhibition is reported as inconclusive: -38.7%. With `Cc1sc2c(c1C)CN(C(C)(C)C)CN2C(=O)c1ccccc1` the activity change (PNC), negative = inhibition was inactive: 4.45%. With `O=S(=O)(NCc1cccnc1)c1ccc(Cl)c(Cl)c1Cl` the activity change (PNC), negative = inhibition was inconclusive: -61.3%. With `O=C(CN1C(=O)c2ccccc2C1=O)N1CCN(c2ccccc2)CC1` the activity change (PNC), negative = inhibition was inconclusive: -40.7%. With `Cc1cc(NC(=O)CCCS(=O)(=O)c2nc(-c3cccs3)cc(C(F)(F)F)n2)no1` the activity change (PNC), negative = inhibition was inconclusive: -49.7%. For `CC(=O)OCc1c(COC(C)=O)[n+](=O)c2ccccc2n1[O-]`, the activity change (PNC), negative = inhibition was inconclusive: -32.4%. For `CCC(=O)Nc1ccc(-c2cc(-c3ccccc3)nc(-c3ccc(NC(=O)CC)cc3)n2)cc1`, the activity change (PNC), negative = inhibition was inconclusive: -62.6%. For `O=C(/C=C/NNC(=O)c1cccc(Br)c1)c1cccc(Br)c1`, the activity change (PNC), negative = inhibition was inactive: 6.12%. With `O=C(CSc1nnc(-c2cccnc2)o1)Oc1ccccc1` the activity change (PNC), negative = inhibition was inactive: -24.8%. With `COc1ccc(CNC(=O)c2c(-c3cc(Cl)c(OC)c(Cl)c3)noc2C)cc1` the activity change (PNC), negative = inhibition was inactive: 22%. In the case of `CCOC(=O)c1cnc2ccc(C)cc2c1Sc1ccccc1`, the activity change (PNC), negative = inhibition is reported as inconclusive: -36.3%. For `CCCCC(SCC(=O)Nc1ccccc1)C(=O)O` (stereo not drawn), the activity change (PNC), negative = inhibition was inactive: 23.1%. With `CCN(C(=O)COC(=O)CNC(=O)C12CC3CC(CC(C3)C1)C2)C1CCS(=O)(=O)C1` (stereo not drawn) the activity change (PNC), negative = inhibition was inconclusive: -61.8%. With `COc1cc(C(=O)NCCC(=O)NCCN2CCOCC2)cc(OC)c1OC` the activity change (PNC), negative = inhibition was inconclusive: -55.2%. With `COc1ccc(CN2CC(C(=O)NCCN3CCOCC3)CC2=O)cc1` (stereo not drawn) the activity change (PNC), negative = inhibition was active: -89.5%. For `COc1ccc(C2=NO[C@@H]3C(=O)N(c4cccc(C)c4C)C(=O)[C@H]23)cc1OC`, the activity change (PNC), negative = inhibition was inactive: 24.1%. With `CC(C)C(=O)NC(=S)N(Cc1ccccc1)Cc1ccccc1` the activity change (PNC), negative = inhibition was inconclusive: -32.8%. In the case of `O=C(/C=C/c1ccco1)Nc1cccc2cccnc12`, the activity change (PNC), negative = inhibition is reported as inconclusive: -36.6%. With `C/C=C/Cn1c(SCc2ccccc2)nc2c1c(=O)[nH]c(=O)n2C` the activity change (PNC), negative = inhibition was inactive: -4.15%. In the case of `CCN(CC)S(=O)(=O)c1ccc2oc(C(=O)NCc3ccc(F)cc3)c(C)c2c1`, the activity change (PNC), negative = inhibition is reported as inconclusive: -66%. For `O=C(C1CCC1)N1CCC(c2nc3c(nnn3Cc3c(F)cccc3Cl)c(=O)[nH]2)CC1`, the activity change (PNC), negative = inhibition was inconclusive: -47.8%. In the case of `COc1ccc(N(CC(=O)NC2CCCCC2)S(=O)(=O)c2cccnc2)cc1`, the activity change (PNC), negative = inhibition is reported as inconclusive: -64.7%. With `CN(C)CC(C)(C)CNC(=O)C1CCN(Cc2ccccc2O)CC1` the activity change (PNC), negative = inhibition was inconclusive: -43.2%. In the case of `O=C(/C(=C\c1ccccc1)c1nc2ccccc2[nH]1)c1ccc(Cl)cc1`, the activity change (PNC), negative = inhibition is reported as inconclusive: -55.4%. With `CCN(CC)C(c1ccc(F)cc1)c1nnnn1CC1CCCO1` (stereo not drawn) the activity change (PNC), negative = inhibition was inconclusive: -30.5%. In the case of `O=C(COc1ccccc1)Nc1ccc(S(=O)(=O)NCc2ccco2)cc1`, the activity change (PNC), negative = inhibition is reported as inconclusive: -48.5%. With `CC(C)c1ccc(/C=C(/C#N)c2nnc(NC(=O)c3ccccc3)s2)cc1` the activity change (PNC), negative = inhibition was inconclusive: -67.5%. With `COc1cc(-c2noc(CCCC(=O)NCc3ccccc3)n2)cc(OC)c1OC` the activity change (PNC), negative = inhibition was inconclusive: -38.4%. In the case of `Cc1ccc(-c2nn(C)c(=O)c3ccccc23)cc1S(=O)(=O)N1CCCC1`, the activity change (PNC), negative = inhibition is reported as inactive: -28.1%. For `O=C(Nc1ccc(Cl)c(Cl)c1)Nc1cc(S(=O)(=O)N2CCOCC2)ccc1N1CCCC1`, the activity change (PNC), negative = inhibition was inactive: 9.38%. For `COC(=O)C1=C(C)NC(=O)C1(NS(=O)(=O)c1ccc(C)cc1)C(F)(F)F` (stereo not drawn), the activity change (PNC), negative = inhibition was inconclusive: -30.7%. For `CCc1nnc(NC(=O)CSc2nnc(Cc3ccccc3)o2)s1`, the activity change (PNC), negative = inhibition was inconclusive: -58.3%. In the case of `CCOC(=O)c1c(NC(=O)c2ccco2)sc2c1CCCCC2`, the activity change (PNC), negative = inhibition is reported as inactive: -26%. For `CCC(c1nnnn1C(C)(C)C)N1CCN(C2CCCC2)CC1` (stereo not drawn), the activity change (PNC), negative = inhibition was inconclusive: -63.3%. For `CSc1nc2ccccc2n1Cc1c(Cl)cccc1Cl`, the activity change (PNC), negative = inhibition was inactive: 8.38%. For `O=C(O)c1ccc(-n2c(-c3ccccc3)n[nH]c2=S)cc1`, the activity change (PNC), negative = inhibition was inactive: -15.2%. In the case of `CSc1ccccc1NC(=O)c1noc2c1CCC2`, the activity change (PNC), negative = inhibition is reported as inconclusive: -78%. For `COc1ccccc1NC(=S)N1C2CCC1CC(NC(=O)NC13CC4CC(CC(C4)C1)C3)C2` (stereo not drawn), the activity change (PNC), negative = inhibition was inconclusive: -64.7%. With `N#CCCn1nc(-c2ccccc2)cc1Nc1ccccc1NC(=O)C(F)(F)F` the activity change (PNC), negative = inhibition was inactive: 22.5%. In the case of `Cc1ccc2c(c1)c1nc3ccccc3nc1n2CCN1CCOCC1`, the activity change (PNC), negative = inhibition is reported as inconclusive: -75.5%. With `Cc1c(C(=O)NCCC2=CCCCC2)cccc1[N+](=O)[O-]` the activity change (PNC), negative = inhibition was inactive: 33.1%. For `Cc1cc(-c2ccc(/C=N/n3cnnc3)o2)c([N+](=O)[O-])cc1C`, the activity change (PNC), negative = inhibition was inconclusive: -39.3%. In the case of `CC(C)n1c(SCCCc2ccccc2)nc2c1c(=O)[nH]c(=O)n2C`, the activity change (PNC), negative = inhibition is reported as inactive: -24.5%. For `O=C(CCCSc1nnc(-c2cccs2)n1CC1CCCO1)c1ccccc1` (stereo not drawn), the activity change (PNC), negative = inhibition was inconclusive: -38.2%. With `OCCN1CCOCCN(CCO)CCN(CCO)CC1` the activity change (PNC), negative = inhibition was inactive: 20.1%. In the case of `Cc1ccc(CN(c2ccc(C(=O)N3CCOCC3)cc2)S(C)(=O)=O)cc1`, the activity change (PNC), negative = inhibition is reported as inconclusive: -34.3%. In the case of `COc1cccc(-c2nnc(SCC(=O)Nc3cc(C)on3)o2)c1`, the activity change (PNC), negative = inhibition is reported as inconclusive: -55.2%. With `Cc1cc2c(c(=O)n1Cc1cccnc1)C(c1cccs1)C(C#N)=C(N)O2` (stereo not drawn) the activity change (PNC), negative = inhibition was inconclusive: -43%. In the case of `CCc1ccccc1NC1=NCC(=O)N1Cc1ccc2c(c1)OCO2`, the activity change (PNC), negative = inhibition is reported as inactive: 16.3%. With `CC(C)(C)OC(=O)N1Cc2ccccc2C[C@H]1C(=O)O` the activity change (PNC), negative = inhibition was inactive: 17.4%. For `Nc1nonc1NC(=O)NN=C1CCCCC1`, the activity change (PNC), negative = inhibition was inconclusive: -51.4%. For `CSc1ccc(/C=N/NC(=O)CN2CCN(Cc3ccc(Cl)cc3)CC2)cc1`, the activity change (PNC), negative = inhibition was inconclusive: -40.8%.
